From paper PMC4810121, “Proteomics Analysis Reveals Novel RASSF2 Interaction Partners” (Cancers, 2016)
These are yes or no findings as the source states them, for the method shown. Binding seen in cells or lysates may run through a third protein. Some binding calls cover weakened binding; strength is not graded here. For some of these results: Sequences can lack the tags named with a protein.

Protein sequences, listed by entry. Tags and fused reporters are not part of them.
UniProt P08670: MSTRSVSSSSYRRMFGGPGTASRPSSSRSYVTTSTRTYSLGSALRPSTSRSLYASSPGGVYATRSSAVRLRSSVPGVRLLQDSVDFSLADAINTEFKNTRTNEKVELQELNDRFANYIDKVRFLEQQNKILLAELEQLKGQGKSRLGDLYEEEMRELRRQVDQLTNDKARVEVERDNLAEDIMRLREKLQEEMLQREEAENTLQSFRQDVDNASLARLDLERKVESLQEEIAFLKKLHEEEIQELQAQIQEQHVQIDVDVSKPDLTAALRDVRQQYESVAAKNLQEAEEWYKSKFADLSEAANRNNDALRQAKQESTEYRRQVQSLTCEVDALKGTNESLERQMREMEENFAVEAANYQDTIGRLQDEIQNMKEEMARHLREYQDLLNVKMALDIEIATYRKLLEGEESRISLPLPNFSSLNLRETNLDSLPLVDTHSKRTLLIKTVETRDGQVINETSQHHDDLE

Legend:
[1] = biological target: T1, RASSF2 (expression construct precipitated with anti-Flag) (UniProt P50749); experiment: co-IP; HEK-293T co-transfected with RASSF2, C1QBP and with or without activated K-Ras for 24 hours; lysates immunoprecipitated with anti-Flag, blotted with anti-Flag and anti-GFP
T1 sequence: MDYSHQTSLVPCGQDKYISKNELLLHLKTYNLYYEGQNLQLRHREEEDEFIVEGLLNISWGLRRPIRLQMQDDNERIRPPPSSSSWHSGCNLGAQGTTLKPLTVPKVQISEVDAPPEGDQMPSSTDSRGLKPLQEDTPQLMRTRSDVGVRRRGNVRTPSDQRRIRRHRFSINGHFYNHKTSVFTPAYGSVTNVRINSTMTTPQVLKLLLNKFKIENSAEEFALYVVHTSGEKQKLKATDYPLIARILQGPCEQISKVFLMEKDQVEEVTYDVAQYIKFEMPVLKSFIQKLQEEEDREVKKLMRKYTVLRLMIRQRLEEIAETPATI

[2] = biological target: endogenous C1QBP (H441) (human (endogenous in H441)) (UniProt Q07021); experiment: co-IP; endogenous proteins; H441 lung cancer cell lysates immunoprecipitated with anti-C1QBP, blotted with anti-RASSF2
GFP-tagged Vimentin [3] = biological target: GFP-tagged Vimentin (UniProt P08670); experiment: co-IP; as a5, with activated K-Ras co-expressed
GFP-tagged Vimentin [4] = biological target: GFP-tagged Vimentin (UniProt P08670); experiment: co-IP; HEK-293T co-transfected with HA-RASSF2 and GFP-Vimentin, without activated K-Ras; lysates immunoprecipitated with anti-GFP, blotted with anti-HA

B1: GFP-C1QBP (natural protein, UniProt Q07021 74-282, looked up)
chain: LHTDGDKAFVDFLSDEIKEERKIQKHKTLPKMSGGWELELNGTEAKLVRKVAGEKITVTFNINNSIPPTFDGEEEPSQGQKVEEQEPELTSTPNFVVEVIKNDDGKKALVLDCHYPEDEVGQEDEAESDIFSIREVSFQSTGESEWKDTNYTLNTDSLDWALYDHLMDFLADRGVDNTFADELVELSTALEHQEYITFLEDLKSFVKSQ
notes: C1QBP; cDNA from GeneCopoeia, PCR amplified and cloned into pEGFP-C1; source: HEK-293T, transfected, in lysate
**Q.** For B1, which binding [1] is on record?
**A.** binds

B2: endogenous RASSF2 (protein, UniProt P50749 1-326)
chain: MDYSHQTSLVPCGQDKYISKNELLLHLKTYNLYYEGQNLQLRHREEEDEFIVEGLLNISWGLRRPIRLQMQDDNERIRPPPSSSSWHSGCNLGAQGTTLKPLTVPKVQISEVDAPPEGDQMPSSTDSRGLKPLQEDTPQLMRTRSDVGVRRRGNVRTPSDQRRIRRHRFSINGHFYNHKTSVFTPAYGSVTNVRINSTMTTPQVLKLLLNKFKIENSAEEFALYVVHTSGEKQKLKATDYPLIARILQGPCEQISKVFLMEKDQVEEVTYDVAQYIKFEMPVLKSFIQKLQEEEDREVKKLMRKYTVLRLMIRQRLEEIAETPATI
**Q.** For B2, which binding [2] is on record?
**A.** binds

B3: HA-tagged RASSF2 (protein, UniProt P50749 1-326)
chain: MDYSHQTSLVPCGQDKYISKNELLLHLKTYNLYYEGQNLQLRHREEEDEFIVEGLLNISWGLRRPIRLQMQDDNERIRPPPSSSSWHSGCNLGAQGTTLKPLTVPKVQISEVDAPPEGDQMPSSTDSRGLKPLQEDTPQLMRTRSDVGVRRRGNVRTPSDQRRIRRHRFSINGHFYNHKTSVFTPAYGSVTNVRINSTMTTPQVLKLLLNKFKIENSAEEFALYVVHTSGEKQKLKATDYPLIARILQGPCEQISKVFLMEKDQVEEVTYDVAQYIKFEMPVLKSFIQKLQEEEDREVKKLMRKYTVLRLMIRQRLEEIAETPATI
**Q.** For B3, which binding (GFP-tagged Vimentin [3]) is on record?
**A.** no binding (condition: with activated K-Ras co-expressed)

**Q.** And the binding (GFP-tagged Vimentin [4])?
**A.** binds
